Results taken from publication PMC10873199.
These are yes or no findings as the source states them, for the method shown. In cells and extracts the contact can be indirect. Some binding calls cover weakened binding; strength is not graded here. Where a sequence is shown, tags or fusion partners need not be part of it.

Sequences of proteins named here, by UniProt entry; tags and fusion partners are left off.
UniProt P78395: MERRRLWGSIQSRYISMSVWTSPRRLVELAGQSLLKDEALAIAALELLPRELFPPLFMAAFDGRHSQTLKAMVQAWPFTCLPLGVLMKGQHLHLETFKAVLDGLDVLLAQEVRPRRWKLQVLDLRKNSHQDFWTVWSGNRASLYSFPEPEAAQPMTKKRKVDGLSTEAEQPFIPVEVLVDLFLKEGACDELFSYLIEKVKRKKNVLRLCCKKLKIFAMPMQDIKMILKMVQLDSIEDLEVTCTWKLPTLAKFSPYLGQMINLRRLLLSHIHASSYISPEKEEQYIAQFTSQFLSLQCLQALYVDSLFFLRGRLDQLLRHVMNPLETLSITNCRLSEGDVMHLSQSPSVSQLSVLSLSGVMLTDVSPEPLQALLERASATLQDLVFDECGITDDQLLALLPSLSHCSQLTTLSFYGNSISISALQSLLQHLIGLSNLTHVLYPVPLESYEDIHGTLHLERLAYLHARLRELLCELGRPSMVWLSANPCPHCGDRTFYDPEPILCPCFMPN

T1: STAG2 (human (endogenous in Mel290)) (UniProt Q8N3U4)
T1 sequence: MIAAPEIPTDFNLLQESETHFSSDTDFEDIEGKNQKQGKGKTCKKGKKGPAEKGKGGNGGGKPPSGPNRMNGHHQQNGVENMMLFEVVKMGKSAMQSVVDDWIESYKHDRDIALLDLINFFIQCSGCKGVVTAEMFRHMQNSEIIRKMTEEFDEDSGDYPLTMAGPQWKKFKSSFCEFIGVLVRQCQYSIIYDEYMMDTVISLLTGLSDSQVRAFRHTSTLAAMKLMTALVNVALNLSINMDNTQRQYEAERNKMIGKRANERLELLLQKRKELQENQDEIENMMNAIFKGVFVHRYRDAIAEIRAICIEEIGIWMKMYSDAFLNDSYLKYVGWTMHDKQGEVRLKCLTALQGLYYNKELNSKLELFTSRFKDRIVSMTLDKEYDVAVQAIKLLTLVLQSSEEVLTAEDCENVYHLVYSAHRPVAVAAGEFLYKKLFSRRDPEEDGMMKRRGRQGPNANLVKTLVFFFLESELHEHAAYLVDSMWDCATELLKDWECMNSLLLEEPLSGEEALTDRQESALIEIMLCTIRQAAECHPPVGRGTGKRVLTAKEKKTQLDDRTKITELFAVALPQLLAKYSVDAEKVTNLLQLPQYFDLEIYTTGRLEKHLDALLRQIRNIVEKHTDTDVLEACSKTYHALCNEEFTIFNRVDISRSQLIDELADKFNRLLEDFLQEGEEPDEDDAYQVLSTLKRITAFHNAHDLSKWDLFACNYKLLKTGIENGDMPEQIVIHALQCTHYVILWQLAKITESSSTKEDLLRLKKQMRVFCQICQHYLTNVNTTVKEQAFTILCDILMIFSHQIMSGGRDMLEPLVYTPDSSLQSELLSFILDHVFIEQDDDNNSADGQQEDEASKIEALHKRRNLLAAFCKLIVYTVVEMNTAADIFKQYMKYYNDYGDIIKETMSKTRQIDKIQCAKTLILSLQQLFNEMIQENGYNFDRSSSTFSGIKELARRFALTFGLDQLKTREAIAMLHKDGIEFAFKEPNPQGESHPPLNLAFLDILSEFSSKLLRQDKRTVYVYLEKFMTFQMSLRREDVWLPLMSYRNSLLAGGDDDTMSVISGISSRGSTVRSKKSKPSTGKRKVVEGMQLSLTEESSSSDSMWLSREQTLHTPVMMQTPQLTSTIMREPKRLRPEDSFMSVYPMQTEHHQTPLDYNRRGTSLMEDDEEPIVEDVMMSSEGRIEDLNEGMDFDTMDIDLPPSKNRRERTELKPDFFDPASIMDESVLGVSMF

T2: SMC1A (human (endogenous in Mel290)) (UniProt Q14683)
T2 sequence: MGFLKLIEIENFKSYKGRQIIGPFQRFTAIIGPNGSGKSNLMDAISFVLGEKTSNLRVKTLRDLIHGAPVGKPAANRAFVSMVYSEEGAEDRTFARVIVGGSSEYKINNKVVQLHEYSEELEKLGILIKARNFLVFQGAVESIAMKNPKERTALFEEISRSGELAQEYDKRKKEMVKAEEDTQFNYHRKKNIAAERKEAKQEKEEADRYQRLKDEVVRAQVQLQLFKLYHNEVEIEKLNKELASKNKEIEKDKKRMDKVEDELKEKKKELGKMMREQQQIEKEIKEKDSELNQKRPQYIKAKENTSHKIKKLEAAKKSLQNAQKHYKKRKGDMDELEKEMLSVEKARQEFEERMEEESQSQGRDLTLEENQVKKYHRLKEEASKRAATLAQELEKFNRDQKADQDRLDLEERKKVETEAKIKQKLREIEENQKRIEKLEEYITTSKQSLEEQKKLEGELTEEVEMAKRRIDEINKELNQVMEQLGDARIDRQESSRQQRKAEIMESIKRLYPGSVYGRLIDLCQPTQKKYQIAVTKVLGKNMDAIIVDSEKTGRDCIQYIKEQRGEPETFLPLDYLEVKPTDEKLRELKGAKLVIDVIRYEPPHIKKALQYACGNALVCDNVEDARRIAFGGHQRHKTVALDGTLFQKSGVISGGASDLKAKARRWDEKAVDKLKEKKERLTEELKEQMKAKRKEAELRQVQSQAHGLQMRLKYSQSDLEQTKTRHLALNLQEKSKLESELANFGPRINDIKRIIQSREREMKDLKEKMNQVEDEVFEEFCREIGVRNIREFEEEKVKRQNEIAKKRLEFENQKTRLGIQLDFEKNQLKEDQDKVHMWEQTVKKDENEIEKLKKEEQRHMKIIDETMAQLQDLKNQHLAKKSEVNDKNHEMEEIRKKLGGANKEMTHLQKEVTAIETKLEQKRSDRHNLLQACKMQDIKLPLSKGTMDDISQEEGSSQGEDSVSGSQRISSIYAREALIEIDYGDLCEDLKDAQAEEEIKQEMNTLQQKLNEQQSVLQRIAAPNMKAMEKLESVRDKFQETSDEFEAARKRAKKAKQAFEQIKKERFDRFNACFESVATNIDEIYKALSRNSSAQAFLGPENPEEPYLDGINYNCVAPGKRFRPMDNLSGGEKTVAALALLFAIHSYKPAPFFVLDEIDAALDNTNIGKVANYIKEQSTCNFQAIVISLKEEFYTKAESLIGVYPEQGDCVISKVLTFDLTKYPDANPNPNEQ

B1: STAG2 (protein, UniProt Q8N3U4 1-1231)
chain: T1 sequence

How the values were obtained:
[1] = target: T1, STAG2 (human (endogenous in Mel290)); test: co-IP; co-IP of PRAME with SMC1A or STAG2 (Supplementary Fig. 4); bait, construct and cells not told in the text shown
[2] = target: T2, SMC1A (human (endogenous in Mel290)); test: co-IP; endogenous SMC1A immunoprecipitated from Mel290 lysate with or without PRAME expression (4 weeks); Western blot for STAG2 and SMC1A

Row | Molecule | binding [1] | binding [2]
1 | PRAME (as used in the co-IP of Supplementary Fig. 4) (from UniProt P78395 1-509) | no binding | –
2 | B1 | – | binds
